In paper PMC9546770:
Results are given in words; binding and its absence hold for the method and conditions named. Binding seen in cells or lysates may run through a third protein. Some binding calls cover weakened binding; strength is not graded here. Where a sequence is shown, tags or fusion partners need not be part of it.

T1: GST-FAK (1-355) fusion protein (UniProt Q05397)
T1 sequence: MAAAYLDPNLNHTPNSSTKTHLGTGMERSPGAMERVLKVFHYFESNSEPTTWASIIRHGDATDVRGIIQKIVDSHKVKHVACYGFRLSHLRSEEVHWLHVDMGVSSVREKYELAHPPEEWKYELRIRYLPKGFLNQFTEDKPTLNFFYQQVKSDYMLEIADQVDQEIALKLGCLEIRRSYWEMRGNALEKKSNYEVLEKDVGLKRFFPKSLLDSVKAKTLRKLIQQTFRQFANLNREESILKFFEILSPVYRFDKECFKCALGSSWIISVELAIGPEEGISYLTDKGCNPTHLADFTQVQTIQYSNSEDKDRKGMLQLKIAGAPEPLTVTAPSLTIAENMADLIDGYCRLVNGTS

T2: Myc-IGSF9 (UniProt Q05BQ1)
T2 sequence: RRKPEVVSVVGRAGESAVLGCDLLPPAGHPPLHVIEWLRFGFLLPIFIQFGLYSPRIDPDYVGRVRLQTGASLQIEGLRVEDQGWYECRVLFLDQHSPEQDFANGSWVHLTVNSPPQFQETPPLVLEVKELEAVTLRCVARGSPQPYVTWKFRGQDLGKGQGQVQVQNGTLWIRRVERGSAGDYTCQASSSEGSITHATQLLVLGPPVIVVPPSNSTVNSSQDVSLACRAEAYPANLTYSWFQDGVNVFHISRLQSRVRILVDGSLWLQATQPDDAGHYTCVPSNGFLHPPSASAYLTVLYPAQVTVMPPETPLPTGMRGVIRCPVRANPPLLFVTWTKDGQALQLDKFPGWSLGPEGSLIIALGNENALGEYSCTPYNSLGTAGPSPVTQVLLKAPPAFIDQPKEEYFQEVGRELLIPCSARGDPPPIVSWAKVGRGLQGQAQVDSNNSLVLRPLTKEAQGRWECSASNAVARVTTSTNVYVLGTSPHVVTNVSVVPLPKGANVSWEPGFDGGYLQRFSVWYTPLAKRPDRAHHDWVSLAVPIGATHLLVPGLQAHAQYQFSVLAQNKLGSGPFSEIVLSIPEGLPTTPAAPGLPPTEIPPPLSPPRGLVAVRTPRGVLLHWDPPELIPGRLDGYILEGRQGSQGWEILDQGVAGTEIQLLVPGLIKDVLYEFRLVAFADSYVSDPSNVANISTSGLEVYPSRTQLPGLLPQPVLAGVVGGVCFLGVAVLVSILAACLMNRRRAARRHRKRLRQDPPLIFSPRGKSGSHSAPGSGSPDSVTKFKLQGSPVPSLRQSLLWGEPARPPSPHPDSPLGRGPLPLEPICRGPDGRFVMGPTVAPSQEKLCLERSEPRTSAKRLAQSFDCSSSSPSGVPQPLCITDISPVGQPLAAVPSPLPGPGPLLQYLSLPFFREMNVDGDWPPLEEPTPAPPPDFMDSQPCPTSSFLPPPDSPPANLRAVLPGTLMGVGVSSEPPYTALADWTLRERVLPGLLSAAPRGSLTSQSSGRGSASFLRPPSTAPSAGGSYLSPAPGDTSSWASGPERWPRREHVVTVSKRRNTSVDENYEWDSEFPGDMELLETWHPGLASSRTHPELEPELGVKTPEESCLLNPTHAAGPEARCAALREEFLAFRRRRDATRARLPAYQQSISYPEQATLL


How the values were obtained:
[1] = target: T1, GST-FAK (1-355) fusion protein; assay: pull-down; GST or GST-FAK (1-355) on Glutathione-Sepharose 4B beads incubated with in vitro translated IGSF9; washed, eluted, western blot; only the target purified
[2] = target: T2, Myc-IGSF9; assay: co-IP; HEK-293T cells transfected with tagged plasmids; lysates immunoprecipitated with anti-myc mouse monoclonal antibody or normal IgG, protein A/G beads, overnight at 4 °C; western blot

binding [1]	binding [2]	Binder
binds	–	In vitro-translated IGSF9 (1-493 aa) (domain or fragment, UniProt Q05BQ1 1-493) MIWCLRLTVLSLIISQGADGRRKPEVVSVVGRAGESAVLGCDLLPPAGHPPLHVIEWLRFGFLLPIFIQFGLYSPRIDPDYVGRVRLQTGASLQIEGLRVEDQGWYECRVLFLDQHSPEQDFANGSWVHLTVNSPPQFQETPPLVLEVKELEAVTLRCVARGSPQPYVTWKFRGQDLGKGQGQVQVQNGTLWIRRVERGSAGDYTCQASSSEGSITHATQLLVLGPPVIVVPPSNSTVNSSQDVSLACRAEAYPANLTYSWFQDGVNVFHISRLQSRVRILVDGSLWLQATQPDDAGHYTCVPSNGFLHPPSASAYLTVLYPAQVTVMPPETPLPTGMRGVIRCPVRANPPLLFVTWTKDGQALQLDKFPGWSLGPEGSLIIALGNENALGEYSCTPYNSLGTAGPSPVTQVLLKAPPAFIDQPKEEYFQEVGRELLIPCSARGDPPPIVSWAKVGRGLQGQAQVDSNNSLVLRPLTKEAQGRWECSASNAVA
–	binds	HA-tagged FAK (1-355 aa) (domain or fragment, UniProt Q05397 1-355) MAAAYLDPNLNHTPNSSTKTHLGTGMERSPGAMERVLKVFHYFESNSEPTTWASIIRHGDATDVRGIIQKIVDSHKVKHVACYGFRLSHLRSEEVHWLHVDMGVSSVREKYELAHPPEEWKYELRIRYLPKGFLNQFTEDKPTLNFFYQQVKSDYMLEIADQVDQEIALKLGCLEIRRSYWEMRGNALEKKSNYEVLEKDVGLKRFFPKSLLDSVKAKTLRKLIQQTFRQFANLNREESILKFFEILSPVYRFDKECFKCALGSSWIISVELAIGPEEGISYLTDKGCNPTHLADFTQVQTIQYSNSEDKDRKGMLQLKIAGAPEPLTVTAPSLTIAENMADLIDGYCRLVNGTS
